# PubChem BioAssay AID540276 (National Center for Advancing Translational Sciences (NCATS), 2011)
# The campaign covered roughly 300,000 compounds. About 5,400 (1.8%) were called active. This list was built around the results that the source calls inconclusive (neither active nor inactive); the mix of calls is not that of the screen. The call rests on the fitted dose curve; tested in HEK293 cells. Potencies beside an inconclusive call are fits to weak or partial responses and may not hold up.
# Assay: qHTS for inhibitors of binding or entry into cells for Marburg Virus
# Details: Marburg virus pseudotyped entry inhibition, cell reporter; series mostly up to 37.8 µM
# Potency means the concentration at half of the fitted maximal effect.
row,SMILES,Potency
1,COc1cc(Cl)c(C)cc1NC(=O)c1cc2c(=O)oc3ccccc3c2s1,inactive
2,Cc1cccc(C(=O)NC2CC3CCCC(C2)N3S(=O)(=O)c2ccccc2)c1 (configuration not stated),"inconclusive: 29.1 µM [inhibitor, single point]"
3,O=C(CN1C(=O)CSC1=O)NC1CCCCC1,inactive
4,O=C(NC(=S)Nc1ccc(N2CCOCC2)cc1)c1cccc(Cl)c1Cl,inactive
5,CC(C)N1CCN(Cc2cn[nH]c2C2CCCCC2)CC1CCO (configuration not stated),"inconclusive: 6.31 µM [activator, single point]"
6,O=C(Nc1ccc2c(c1)OCO2)C1CC1,"inconclusive: 6.31 µM [activator, full curve, poor fit]"
7,O=S(=O)(NC1c2cccc3cccc(c23)C1N1CCNCC1)c1ccc(Cl)cc1 (configuration not stated),"inconclusive: 35.5 µM [inhibitor, single point]"
8,CCOc1ccc2nc(N3CCC(C(=O)N4CCC5(CC4)OCCO5)CC3)sc2c1,"inconclusive: 0.73 µM [activator, single point]"
9,O=c1[nH]n(-c2ccccc2)c(=O)cc1Cl,"inconclusive: 0.562 µM [inhibitor, full curve, poor fit]"
10,COC(=O)c1cc(OC)c(OC)cc1NC(=O)c1cc(C(C)(C)C)oc1C,inactive
11,CC(=O)NCC(=O)OCC(=O)Nc1nc(-c2ccccc2)cs1,inactive
12,CCCN(CC(=O)Nc1cc(Cl)ccc1Cl)C(=O)/C=C/c1ccco1,"inconclusive: 0.112 µM [inhibitor, full curve, poor fit]"
13,COc1ccc2c(c1)CC/C(=C\Nc1ccc3c(c1)OCO3)C2=O,"inconclusive: 29.1 µM [inhibitor, single point]"
14,COc1ccc(NC(=O)CN(C)CC(=O)Nc2ccc3c(c2)CCC3)cc1,"inconclusive: 11.2 µM [inhibitor, single point]"
15,Cc1cc(S(=O)(=O)Nc2ccc(C(=O)N3CCN(C(=O)c4ccco4)CC3)cc2)ccc1F,"inconclusive: 11.2 µM [inhibitor, partial curve, poor fit]"
16,CCSC1=NCCN1C(=O)c1c(-c2ccccc2Cl)noc1C,"inconclusive: 10 µM [inhibitor, partial curve, poor fit]"
17,OC(CNCCc1ccc(C(F)(F)F)cc1)COc1cccc2ccccc12 (configuration not stated),"inconclusive: 18.4 µM [inhibitor, partial curve, poor fit]"
18,COCc1cc(=O)[nH]c(SCC(=O)c2ccccc2)n1,inactive
19,O=C(NCCCN1CCCC1=O)Nc1ccccc1Cl,inactive
20,CC(NC(=O)Nc1ccc(O)cc1)(C(F)(F)F)C(F)(F)F,inactive
21,CNC(=O)c1ccc(Nc2nnc(C)c3ccccc23)cc1,inactive
22,CCOc1c(Br)cc(/C=N\NC(=O)c2ccccc2)cc1OC,"inconclusive: 0.731 µM [activator, single point]"
23,C/C(=N\NC(=S)NCc1ccccc1)c1cccs1,inactive
24,O=C(CN1CCCCC1)Nc1ccc(N2CCCCCC2)cc1,"inconclusive: 6.31 µM [activator, single point]"

row,SMILES,Potency
1,CC1(C)CN(CCc2ccccc2)C(=O)[C@@H]1CC(=O)Nc1ccc(Br)cc1,"inconclusive: 0.0063 µM [inhibitor, full curve, poor fit]"
2,O=[N+]([O-])c1ccc(NC2CCN(Cc3ccccc3)CC2)c2ccncc12,"inconclusive: 6.51 µM [inhibitor, partial curve]"
3,COc1ccc(OCCSc2nc(-c3ccccc3)cc(=O)[nH]2)cc1,inactive
4,CN(c1ccc(C(=O)Nc2ccccc2C(=O)N2CCCC2)cc1)S(C)(=O)=O,inactive
5,COc1ccc(C(CNC(=O)Cc2c(F)cccc2Cl)N2CCCCC2)cc1 (configuration not stated),"inconclusive: 25.1 µM [inhibitor, single point]"
6,CCCOC(=O)c1[nH]c2c(c1C)C(=O)CC(c1cccs1)C2 (configuration not stated),"inconclusive: 1.12 µM [inhibitor, partial curve, poor fit]"
7,CCn1c(SCC(=O)N2CCCc3ccccc32)nnc1-c1cccs1,inactive
8,CC1CCC2(CC1)NC(=O)N(Cc1cccc(C(F)(F)F)c1)C2=O (configuration not stated),"inconclusive: 22.4 µM [inhibitor, single point]"
9,COc1ccc2ccccc2c1/C=N/NC(=O)c1cccc(Br)c1,inactive
10,CCOC(=O)c1c(NC(=O)CSc2n[nH]c(N)n2)sc(CC)c1C,"inconclusive: 7.3 µM [inhibitor, partial curve, poor fit]"
11,C/C(=N\NC(=O)c1c(Cl)cnn1C)c1cccc(NC(=O)COc2ccccc2)c1,"inconclusive: 15.8 µM [inhibitor, single point]"
12,CCCC(CCC(=O)Nc1ccc(C(=O)OC)cc1)C(=O)O (configuration not stated),"inconclusive: 12.6 µM [activator, single point]"
13,CCCSc1ncc(Cl)c(C(=O)N(Cc2ccccc2)c2ccc(OC)cc2)n1,"inconclusive: 8.91 µM [inhibitor, partial curve, poor fit]"
14,O=C(Nc1cccc(C(=O)NC2CC2)c1)c1ccccc1,"inconclusive: 7.91 µM [activator, full curve, poor fit]"
15,CO/N=C(\c1nonc1N)N1CCN(c2ccc(Cl)cc2[N+](=O)[O-])CC1,"inconclusive: 11.2 µM [inhibitor, partial curve, poor fit]"
16,CCNC(=O)NC(=O)C(C)OC(=O)c1c(C)nn(Cc2ccccc2)c1Cl (configuration not stated),"inconclusive: 0.355 µM [activator, partial curve, poor fit]"
17,CCCCC(=O)Nc1cc(C(=O)NCCc2ccccc2)ccc1Cl,"inconclusive: 29.1 µM [inhibitor, single point]"
18,O=C1Cc2cc([N+](=O)[O-])ccc2N1c1c(Cl)cccc1Cl,"inconclusive: 8.91 µM [activator, partial curve]"
19,Cc1cc(C)n(-c2nc(Nc3ccccc3C)nc(-n3nc(C)cc3C)n2)n1,inactive
20,COc1cccc(C2=NN(C(=O)c3ccco3)C(O)(C(F)(F)F)C2)c1 (configuration not stated),"inconclusive: 6.31 µM [inhibitor, single point]"
21,O=C(CNCC1CCCO1)Nc1ccccc1N1CCCCCC1 (configuration not stated),"inconclusive: 0.82 µM [inhibitor, full curve, poor fit]"
22,CCOC(=O)c1cc(-c2cccs2)[nH]n1,inactive
23,Cc1cccc(C)c1NC(=O)COC(=O)C1Cc2ccccc2CN1C(=O)c1ccccc1 (configuration not stated),inactive
24,CCN1C(=O)S/C(=C\c2ccc(N3CCOCC3)cc2C)C1=O,"inconclusive: 0.411 µM [activator, full curve, poor fit]"

# Another view of some results above.
row	SMILES	Potency
9	COc1ccc2ccccc2c1/C=N/NC(=O)c1cccc(Br)c1	inactive
15	CO/N=C(\c1nonc1N)N1CCN(c2ccc(Cl)cc2[N+](=O)[O-])CC1	inconclusive: 11.2 µM [inhibitor, partial curve, poor fit]
19	Cc1cc(C)n(-c2nc(Nc3ccccc3C)nc(-n3nc(C)cc3C)n2)n1	inactive
20	COc1cccc(C2=NN(C(=O)c3ccco3)C(O)(C(F)(F)F)C2)c1 (configuration not stated)	inconclusive: 6.31 µM [inhibitor, single point]

# Carrying on.

row,SMILES,Potency
1,Cc1nc(N)sc1C(=O)NN,inactive
2,CC(=O)Nc1ccc(S(=O)(=O)N2CCN(Cc3cccc([N+](=O)[O-])c3)CC2)cc1,inactive
3,Cc1ccc(N2C(=O)c3n[nH]c(C)c3C2c2ccccc2Cl)cc1 (configuration not stated),inactive
4,CC(C)S(=O)(=O)N1CCCC(C(=O)c2cccc(Cl)c2)C1 (configuration not stated),inactive
5,CCN(CC)CCCNC(=O)c1ccc(N2CCCCC2)c(NS(=O)(=O)c2ccc(C)cc2)c1,active: 14.6 µM
6,O=C(CCNC(=O)OCc1ccccc1)NC1CCCCCC1,"inconclusive: 3.16 µM [inhibitor, single point]"
7,CCOc1ccc(/C=C2/SC(=S)N(n3c(C)ccc3C)C2=O)cc1,"inconclusive: 29.1 µM [inhibitor, single point]"
8,O=C(CN1C(=O)c2ccccc2S1(=O)=O)Nc1ccc(S(=O)(=O)Nc2ncccn2)cc1,"inconclusive: 5.62 µM [activator, full curve, poor fit]"
9,CCCNC(=O)OC[C@@H]1O[C@H](CCO/N=C(\C)CCN2CCCCc3nc(C)c(C)cc32)C=C[C@@H]1Oc1ccc(OC)cc1,inactive
10,CC(=O)c1ccc(N(CC(=O)NC2CCCC2)C(=O)c2csnn2)cc1,"inconclusive: 11.2 µM [activator, single point]"
11,COc1ccc(NC(=O)c2ncn(-c3ccccc3)n2)cc1Cl,"inconclusive: 35.5 µM [activator, single point]"
12,CCCC(=O)Nc1nnc(SCC)s1,inactive
13,CCOC(=O)c1c(-c2ccccc2)oc2ccc(O)c(CN3CCOCC3)c12,"inconclusive: 35.5 µM [inhibitor, single point]"
14,Cc1c(C(=O)OCC2CCCCC2)[nH]c2c1C(=O)CC(c1ccccc1Cl)C2 (configuration not stated),inactive
15,N=C1C(c2nc3ccccc3s2)=C(O)CN1CCCO,inactive
16,CC(C)(C)c1ccc(-c2n[nH]c(=S)n2C2CCCC2)cc1,"inconclusive: 1.46 µM [inhibitor, partial curve, poor fit]"
17,O=C(O)c1ccccc1N/N=C\c1ccnc2ccccc12,active: 3.98 µM
18,COc1ccc(CCNC(=O)CCc2c(C)nc3c4cccnc4nn3c2C)cc1OC,inactive
19,Cc1ccc(Cn2c(SCC(=O)N/N=C/c3ccc(C)o3)nc3ccccc32)cc1,inactive
20,COc1ccc(NC(=S)NNc2ccc([N+](=O)[O-])cc2S(=O)(=O)Nc2ccc(C)cc2C)cc1,"inconclusive: 17.8 µM [inhibitor, single point]"
21,CCN(CC)CCN(Cc1cc2cccc(C)c2[nH]c1=O)C(=S)Nc1ccccc1,"inconclusive: 14.1 µM [inhibitor, partial curve, poor fit]"
22,CC(OC(=O)c1cccs1)C(=O)NCc1ccco1 (configuration not stated),inactive
23,O=C(Nc1ccc(Cl)cc1)Nc1nc(-c2sccc2Br)cs1,"inconclusive: 20 µM [inhibitor, single point]"
24,CCC(Sc1nnc2c(n1)[nH]c1ccccc12)C(=O)Nc1ccccc1OC (configuration not stated),"inconclusive: 10 µM [activator, partial curve, poor fit]"
